Results reported in PMC12575849.
These are yes or no findings as the source states them, for the method shown. In cells and extracts the contact can be indirect. A yes stands for co-enrichment or nearness to the bait. Other partners may have been found.

Sequences of proteins named here, by UniProt entry; tags and fusion partners are left off.
UniProt O14646: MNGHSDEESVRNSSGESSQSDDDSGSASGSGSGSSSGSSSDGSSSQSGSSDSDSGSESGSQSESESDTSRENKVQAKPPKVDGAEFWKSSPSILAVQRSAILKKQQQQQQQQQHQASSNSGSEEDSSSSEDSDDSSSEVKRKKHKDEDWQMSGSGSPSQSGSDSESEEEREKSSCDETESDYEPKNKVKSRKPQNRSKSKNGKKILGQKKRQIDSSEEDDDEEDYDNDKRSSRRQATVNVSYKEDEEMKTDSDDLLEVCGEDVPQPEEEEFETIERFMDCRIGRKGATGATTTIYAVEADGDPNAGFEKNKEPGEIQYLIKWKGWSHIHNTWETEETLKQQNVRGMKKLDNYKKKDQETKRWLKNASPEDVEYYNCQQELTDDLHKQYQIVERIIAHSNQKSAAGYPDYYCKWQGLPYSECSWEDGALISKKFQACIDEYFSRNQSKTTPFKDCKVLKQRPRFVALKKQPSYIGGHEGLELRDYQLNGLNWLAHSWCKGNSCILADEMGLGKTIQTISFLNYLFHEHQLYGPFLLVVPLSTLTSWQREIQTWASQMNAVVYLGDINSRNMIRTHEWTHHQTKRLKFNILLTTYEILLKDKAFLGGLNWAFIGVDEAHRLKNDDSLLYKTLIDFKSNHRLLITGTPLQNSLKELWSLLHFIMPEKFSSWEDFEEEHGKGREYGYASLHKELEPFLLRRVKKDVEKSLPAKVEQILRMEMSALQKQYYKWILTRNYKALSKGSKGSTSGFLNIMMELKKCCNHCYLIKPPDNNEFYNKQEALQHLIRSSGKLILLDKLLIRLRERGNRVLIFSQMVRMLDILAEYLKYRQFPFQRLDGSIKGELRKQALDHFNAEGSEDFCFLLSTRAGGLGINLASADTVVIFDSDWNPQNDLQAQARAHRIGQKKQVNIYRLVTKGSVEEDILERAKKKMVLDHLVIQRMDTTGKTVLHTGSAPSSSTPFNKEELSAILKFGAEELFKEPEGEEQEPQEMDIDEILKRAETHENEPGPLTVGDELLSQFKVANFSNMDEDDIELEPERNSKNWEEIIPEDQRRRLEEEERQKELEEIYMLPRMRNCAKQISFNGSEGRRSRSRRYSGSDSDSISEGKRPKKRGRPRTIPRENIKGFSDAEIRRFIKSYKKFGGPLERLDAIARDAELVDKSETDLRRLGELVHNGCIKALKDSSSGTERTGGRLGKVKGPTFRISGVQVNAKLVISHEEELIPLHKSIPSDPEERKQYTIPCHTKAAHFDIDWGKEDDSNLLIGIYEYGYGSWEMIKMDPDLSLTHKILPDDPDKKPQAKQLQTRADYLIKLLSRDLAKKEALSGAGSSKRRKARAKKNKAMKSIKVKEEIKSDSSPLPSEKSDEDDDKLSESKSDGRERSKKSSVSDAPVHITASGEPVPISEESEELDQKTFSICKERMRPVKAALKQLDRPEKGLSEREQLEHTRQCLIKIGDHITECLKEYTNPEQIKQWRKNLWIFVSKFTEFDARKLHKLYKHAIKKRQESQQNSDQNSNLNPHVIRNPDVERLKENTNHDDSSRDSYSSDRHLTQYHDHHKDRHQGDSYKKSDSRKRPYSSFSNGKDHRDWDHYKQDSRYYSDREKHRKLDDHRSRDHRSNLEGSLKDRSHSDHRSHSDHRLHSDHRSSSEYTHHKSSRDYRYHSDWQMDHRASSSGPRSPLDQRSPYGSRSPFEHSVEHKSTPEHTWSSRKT

Molecular target: CHD1^WT-Venus (chromodomain helicase DNA-binding 1, wild type) (human) (UniProt O14646)
Assay: proximity labelling; antibody-based in situ biotinylation: fixed (4% PFA), permeabilised HeLa cells, anti-GFP primary antibody, HRP-conjugated secondary antibody, biotin-tyramide and H2O2 for 1 min (~20 nm radius), avidin pull-down, LC-MS/MS with label-free quantification; single biological replicate

binding: binds
B1: SDS3 (protein, UniProt Q9H7L9 1-328)
chain: MSAAGLLAPAPAQAGAPPAPEYYPEEDEELESAEDDERSCRGRESDEDTEDASETDLAKHDEEDYVEMKEQMYQDKLASLKRQLQQLQEGTLQEYQKRMKKLDQQYKERIRNAELFLQLETEQVERNYIKEKKAAVKEFEDKKVELKENLIAELEEKKKMIENEKLTMELTGDSMEVKPIMTRKLRRRPNDPVPIPDKRRKPAPAQLNYLLTDEQIMEDLRTLNKLKSPKRPASPSSPEHLPATPAESPAQRFEARIEDGKLYYDKRWYHKSQAIYLESKDNQKLSCVISSVGANEIWVRKTSDSTKMRIYLGQLQRGLFVIRRRSAA
